Results as given in patent US20130129701, “Methods and Compositions for Sequence Specific RNA Endonucleases” (published 2013).
Where a chain is given by its changes, count along the chain named. For some assays here: Negatives hold for the conditions tested. For some assays here: Tags and fusion partners may be left off the protein sequences shown. For some assays here: A weaker result is weaker than the reference pair of the same experiment. For some assays here: Results from cells or extracts need not show a direct contact. For some assays here: The exact form of at least one protein or probe is not confirmed.

Experiments:
[1] = target: PUF-E R1(SYxxR) R2(SYxxE) R3(NRxxQ) R5(SRxxE) R7(SYxxR) R8(SYxxE) (Homo sapiens) (UniProt Q14671); experiment: one hybrid; conditions: yeast three-hybrid, protein in cells, protein details: Gal4 AD fusion
[2] = target: PUF-D R1(SRxxE) R3(SYxxR) R4(SYxxE) R5(NRxxQ) R6(SYxxR) (Homo sapiens) (UniProt Q14671); experiment: one hybrid; conditions: yeast three-hybrid, protein in cells, protein details: Gal4 AD fusion
[3] = target: T1, PUF domain of Pumilio 1 (wild type) (Homo sapiens) (UniProt Q14671); experiment: one hybrid; conditions: yeast three-hybrid, protein in cells, protein details: Gal4 AD fusion
T1 sequence (looked up): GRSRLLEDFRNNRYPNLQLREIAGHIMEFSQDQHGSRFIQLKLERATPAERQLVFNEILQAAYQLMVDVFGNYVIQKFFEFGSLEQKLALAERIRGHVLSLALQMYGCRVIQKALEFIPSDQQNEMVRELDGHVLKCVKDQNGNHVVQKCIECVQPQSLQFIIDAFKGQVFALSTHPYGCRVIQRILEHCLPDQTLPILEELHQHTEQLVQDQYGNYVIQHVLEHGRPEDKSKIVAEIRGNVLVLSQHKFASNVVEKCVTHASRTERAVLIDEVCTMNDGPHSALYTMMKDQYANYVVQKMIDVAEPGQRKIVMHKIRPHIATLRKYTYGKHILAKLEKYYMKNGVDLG

[4] = target: T2, ASRE(6-2/7-2) (artificial (Homo sapiens domains)) (UniProt Q14671); experiment: enzyme reaction in vitro; conditions: no cleavage, purified recombinant protein
T2 sequence: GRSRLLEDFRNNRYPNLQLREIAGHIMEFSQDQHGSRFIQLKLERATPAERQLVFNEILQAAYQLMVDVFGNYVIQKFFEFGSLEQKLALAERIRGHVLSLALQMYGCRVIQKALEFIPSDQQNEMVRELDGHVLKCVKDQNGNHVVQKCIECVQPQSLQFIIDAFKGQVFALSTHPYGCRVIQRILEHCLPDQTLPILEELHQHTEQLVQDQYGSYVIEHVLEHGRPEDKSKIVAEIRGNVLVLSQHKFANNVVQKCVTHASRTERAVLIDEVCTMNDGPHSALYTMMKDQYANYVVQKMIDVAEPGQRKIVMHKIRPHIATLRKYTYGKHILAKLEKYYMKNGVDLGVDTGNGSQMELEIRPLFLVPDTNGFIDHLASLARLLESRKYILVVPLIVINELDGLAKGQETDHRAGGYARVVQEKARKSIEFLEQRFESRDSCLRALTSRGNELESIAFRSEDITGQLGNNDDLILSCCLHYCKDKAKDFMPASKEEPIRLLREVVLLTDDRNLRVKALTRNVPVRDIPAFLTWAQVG

[5] = target: T3, PUF-R6(SYxxR) N1043S/Q1047R (Homo sapiens) (UniProt Q14671); experiment: one hybrid; conditions: yeast three-hybrid, protein in cells, protein details: Gal4 AD fusion
T3 sequence (looked up, limits assumed): T1 sequence (looked up) with N216S, Q220R

[6] = target: PUF-Eco (two amino acids inserted in repeat 6 between S and R) N1043S/Q1047R plus EcoRI-site two-residue insertion (Homo sapiens) (UniProt Q14671); experiment: one hybrid; conditions: yeast three-hybrid, protein in cells, protein details: Gal4 AD fusion
[7] = target: T4, PUF-R6(SHxxR) N1043S/Y1044H/Q1047R (Homo sapiens) (UniProt Q14671); experiment: one hybrid; conditions: yeast three-hybrid, protein in cells, protein details: Gal4 AD fusion
T4 sequence (looked up, limits assumed): T1 sequence (looked up) with N216S, Y217H, Q220R

[8] = target: T5, PUF-R7(SYxxR) N1080Y/E1083R (Homo sapiens) (UniProt Q14671); experiment: one hybrid; conditions: yeast three-hybrid; G2 RNA; protein in cells; protein details: Gal4 AD fusion
T5 sequence (looked up, limits assumed): T1 sequence (looked up) with N253Y, E256R

[9] = target: T6, PUF-R7(SNxxR) E1083R (Homo sapiens) (UniProt Q14671); experiment: one hybrid; conditions: yeast three-hybrid; G2 RNA; protein in cells; protein details: Gal4 AD fusion
T6 sequence (looked up, limits assumed): T1 sequence (looked up) with E256R

[10] = target: T7, PUF-R2(SYxxR) N899S/Q903R (Homo sapiens) (UniProt Q14671); experiment: one hybrid; conditions: yeast three-hybrid; protein in cells; protein details: Gal4 AD fusion
T7 sequence (looked up, limits assumed): T1 sequence (looked up) with N72S, Q76R

[11] = target: T8, ASRE(6-2/7-2) with tripeptide linker VDT linker VDTGNGS replaced by VDT (artificial (Homo sapiens domains)) (UniProt Q14671); experiment: enzyme reaction in vitro; conditions: very low activity with short linker; purified recombinant protein; variant of NRE (wild-type PUF target, U3)
T8 sequence: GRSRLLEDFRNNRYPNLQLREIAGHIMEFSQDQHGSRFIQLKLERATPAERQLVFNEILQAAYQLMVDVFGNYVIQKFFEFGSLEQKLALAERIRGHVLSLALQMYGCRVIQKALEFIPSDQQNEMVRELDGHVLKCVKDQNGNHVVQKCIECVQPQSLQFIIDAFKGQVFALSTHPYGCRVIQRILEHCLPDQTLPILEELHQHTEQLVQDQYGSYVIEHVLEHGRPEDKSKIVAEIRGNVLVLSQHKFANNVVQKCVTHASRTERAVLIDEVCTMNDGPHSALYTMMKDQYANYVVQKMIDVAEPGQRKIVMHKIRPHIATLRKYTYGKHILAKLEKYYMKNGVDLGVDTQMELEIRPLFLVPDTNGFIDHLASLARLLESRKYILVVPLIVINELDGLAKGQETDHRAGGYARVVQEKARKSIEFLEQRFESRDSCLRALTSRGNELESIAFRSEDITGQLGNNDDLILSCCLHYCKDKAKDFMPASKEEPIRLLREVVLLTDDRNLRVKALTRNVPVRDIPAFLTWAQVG

[12] = target: T9, ASRE(6-2/7-2/1-1) (ASRE(671)) (artificial (Homo sapiens domains)) (UniProt Q14671); experiment: enzyme reaction in vitro; conditions: more than five-fold lower Vmax than cognate 7u6g1g; purified recombinant protein; variant of NRE (wild-type PUF target, U3)
T9 sequence: T2 sequence with Q40E

[13] = target: T10, ASRE(6-2/7-2) with dodecapeptide linker VDRRMARDGLVH (artificial (Homo sapiens domains)) (UniProt Q14671); experiment: enzyme reaction in vitro; conditions: non-specific products at longer incubation; purified recombinant protein; variant of NRE (wild-type PUF target, U3)
T10 sequence: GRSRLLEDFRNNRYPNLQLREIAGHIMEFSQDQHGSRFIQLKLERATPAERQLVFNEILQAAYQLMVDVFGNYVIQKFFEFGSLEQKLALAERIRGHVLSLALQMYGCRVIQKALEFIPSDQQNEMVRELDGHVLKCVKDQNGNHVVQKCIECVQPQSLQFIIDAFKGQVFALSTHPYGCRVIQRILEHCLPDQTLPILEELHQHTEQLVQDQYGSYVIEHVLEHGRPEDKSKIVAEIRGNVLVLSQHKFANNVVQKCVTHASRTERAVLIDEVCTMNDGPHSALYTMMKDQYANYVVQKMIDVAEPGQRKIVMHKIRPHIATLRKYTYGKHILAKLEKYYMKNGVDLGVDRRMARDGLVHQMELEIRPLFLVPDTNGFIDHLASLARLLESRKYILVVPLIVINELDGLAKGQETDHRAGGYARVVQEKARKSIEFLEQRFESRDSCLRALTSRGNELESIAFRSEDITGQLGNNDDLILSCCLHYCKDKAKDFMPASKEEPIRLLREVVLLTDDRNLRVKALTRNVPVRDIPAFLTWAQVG

[14] = stronger than WT PUF with its target
[15] = variant of NRE (wild-type PUF target, U3)

Q: Which results are given for CUGCUGCUGCUGCUG [(CUG)5 RNA]?
A: binding result [1, 14]: binds; binding result [2, 14]: binds; binding result [3]: no binding

Q: With GUGAUAAG [87621 (8g7u6g2a1g)] as the sequence, how does the functional effect [4, 15] read?
A: not active

Q: Does UGCAUAUA [C3 RNA] bind ([5]; strongest with C3, variant of NRE (wild-type PUF target, U3))?
A: binds

Q: Does UGCAUAUA [C3 RNA] bind [6, 15]?
A: no binding

Q: Does UGCAUAUA [C3 RNA] bind [7, 15]?
A: binds

Q: Does UGCAUAUA [C3 RNA] bind [3, 15]?
A: no binding

Q: Does “UGUAUAUA [NRE (wild-type PUF target, U3)]” bind ([5]; very weak)?
A: binds more weakly

Q: Does “UGUAUAUA [NRE (wild-type PUF target, U3)]” bind ([1]; control RNA)?
A: no binding

Q: Does “UGUAUAUA [NRE (wild-type PUF target, U3)]” bind [8]?
A: binds more weakly

Q: Does “UGUAUAUA [NRE (wild-type PUF target, U3)]” bind [6]?
A: no binding

Q: Does “UGUAUAUA [NRE (wild-type PUF target, U3)]” bind [7]?
A: binds more weakly

Q: Does “UGUAUAUA [NRE (wild-type PUF target, U3)]” bind [9]?
A: no binding

Q: Does “UGUAUAUA [NRE (wild-type PUF target, U3)]” bind [10]?
A: no binding

Q: Does “UGUAUAUA [NRE (wild-type PUF target, U3)]” bind ([2]; control RNA)?
A: no binding

Q: Does “UGUAUAUA [NRE (wild-type PUF target, U3)]” bind [3]?
A: binds

Q: And the functional effect [4]?
A: not active

Q: With UGUAUGUA [3g] as the sequence, how does the functional effect [4, 15] read?
A: not active

Q: Which functional effect [4, 15] does the source give for UGUGUGUG [5g3g1g] here?
A: not active

Q: Which results are given for UUGAUAUA [7u6g]?
A: functional effect [11]: less active; functional effect [12]: less active; functional effect [13]: active
